# Where a name gives a salt, the structure may show the parent alone. ± gives the standard deviation of the averaged measurements. Most of the strong results are listed elsewhere, so they are rarer here than in the full data.
# Tested on: HFF
# Experiment: uninfected host cell viability relative to vehicle control; higher = less host cell toxicity
# Conditions: 5 µM; 72 h; oxygen 21 %
# 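Further: confluent HFF monolayers, run in parallel with the Toxoplasma growth screen as a host toxicity counterscreen.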
row,Compound,uninfected host cell viability [%]
1,Cc1c(C(=O)NN2CCCCC2)nn(-c2ccc(Cl)cc2Cl)c1-c1ccc(I)cc1,104 ± 2.1
2,Cc1cccc(CCN2CCC(C(=O)c3ccc(NS(C)(=O)=O)cc3)CC2)n1 [E-4031 dihydrochloride],89.4 ± 4.9

# From the supplement of paper PMC4894684
